One assay relates to Micrococcus luteus. In words: Antimicrobial activity against Micrococcus luteus after 3 days. It counts as functional. The note with it: 72 h.
For another assay, the system named is NCI-H460. Kind of assay: Cytotoxicity against human H460 after 3 days by SRB assay. As to conditions: NCI-H460, 72 h. Format: functional, cell-based. On the technique in general: The SRB assay estimates cell density from bound dye.
The next assay deals with SF-268. Kind of assay: cells. It counts as functional, cell-based. The note with it: Homo sapiens, SF-268, 72 h.
The test system of a further assay is MCF7. In words: Cytotoxicity against human MCF7 after 3 days by SRB assay. The note with it: MCF7, 72 h. Format: functional, cell-based.
The next assay relates to Saccharomyces cerevisiae. Kind of assay: Antimicrobial activity against Saccharomyces cerevisiae after 3 days. As to conditions: 72 h. Format: functional.
Assay [1] concerns Mycolicibacterium smegmatis. Kind of assay: Antimicrobial activity against Mycobacterium smegmatis after 3 days. Format: functional. As to conditions: 72 h.
The next assay deals with Aspergillus niger. In words: Antimicrobial activity against Aspergillus niger after 3 days. Format: functional. The note with it: 72 h.

Bounds are passed on as bounds.

A word on the MIC: it is the least concentration at which growth counts as inhibited. As a reminder, the EC50 is the concentration needed to bring the measured effect to its halfway point. The low end stands for greater potency, the high end for weaker potency. Regarding `COc1c(O)cc2c(c1OC)-c1ccc(OC)c(=O)cc1[C@@H](NC(C)=O)CC2` [3-DESMETHYLCOLCHICIN], the MIC (in the assay with Micrococcus luteus; against Saccharomyces cerevisiae; in assay [1]; with Aspergillus niger) was over 500 µg/mL in each case. Further, the EC50 amounted to 510 nM with NCI-H460, 280 nM in the assay on SF-268 and 180 nM in the assay with MCF7.

These data come from ChEMBL document CHEMBL1142575, “New colchicinoids from a native Jordanian meadow saffron, colchicum brachyphyllum: isolation of the first naturally occurring dextrorotatory colchicinoid” (J Nat Prod, 2005).
